Values from PubChem BioAssay AID1259424 (University of Nebraska Medical Center, 2018)

- Assay: 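Find knockdowns that reproduce the expression shifts seen after KSR1 loss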 (primary screen)
- Cell system: human HCT116 colon cancer cells
- Knock-down reagent: siRNA pool against human genes, 50 nM
- Measurement: 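Log2 levels of six mRNAs (branched-DNA multiplex), adjusted by two reference genes and the non-targeting median, then scored against the average KSR1 knockdown pattern as Pearson r and euclidean distance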
- Reading the numbers: mean correlation with KSR1 profile and KSR1 correlation: higher = expression change more like KSR1 knockdown; mean distance from KSR1 profile: higher = expression change less like KSR1 knockdown
This is a random part of about 14,000 deposited reagents. 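Higher correlation or smaller distance means closer resemblance to KSR1 loss; control wells, including KSR1 knockdowns, recur on many plates.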 Not stated in the record: the time to read-out.

Gene	mean correlation with KSR1 profile	mean distance from KSR1 profile	KSR1 correlation, replicate 1	KSR1 correlation, replicate 2	KSR1 correlation, replicate 3
HNRNPUL1	0.0056	3.81	0.566	-0.205	-0.274
CCL16	-0.481	1.14	0.0292	-0.748	-0.502
FAM167B	0.806	1.21	0.702	0.743	0.847
AUH	-0.384	2.1	-0.449	-0.322	-0.466
PAFAH1B1	-0.439	3.22	-0.422	-0.389	-0.396
FABP3	-0.152	1.44	0.0418	-0.18	-0.391
MAP4K4	0.832	0.685	0.869	0.734	0.711
GUCY2C	0.128	2.56	0.229	0.026	-0.123
GPR101	0.76	1.73	0.787	0.826	0.549
GTF2IRD2	0.00239	3.17	0.202	-0.293	0.293
CCR6	0.42	2.19	0.393	0.348	0.56
IFFO1	0.879	2.57	0.889	0.857	0.681
TNFRSF10A	-0.00314	3.07	0.291	-0.221	-0.24
SPRYD7	-0.523	1.87	-0.64	-0.437	-0.552
LAMB2	0.538	1.19	0.512	0.584	0.581
SENP2	-0.292	2.54	-0.354	-0.128	-0.152
PCDHGA11	-0.215	1.21	-0.39	-0.451	-0.185
CRTC1	-0.111	4.76	-0.0249	-0.0375	-0.327
CPVL	-0.311	1.57	-0.545	-0.246	-0.519
DDX17	-0.343	1.97	-0.219	-0.535	-0.357

2 entries from above, reformatted.
CRTC1: mean correlation with KSR1 profile = -0.111; mean distance from KSR1 profile = 4.76; KSR1 correlation, replicate 1 = -0.0249; KSR1 correlation, replicate 2 = -0.0375; KSR1 correlation, replicate 3 = -0.327
CPVL: mean correlation with KSR1 profile = -0.311; mean distance from KSR1 profile = 1.57; KSR1 correlation, replicate 1 = -0.545; KSR1 correlation, replicate 2 = -0.246; KSR1 correlation, replicate 3 = -0.519
